Laboratory results as given in the supplement of paper PMC8975748.
Counter-ions that a name gives are not always drawn. ± gives the standard deviation of the averaged measurements. The list shows a part of the results. These are raw signals, not scaled to a control.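 A single yeast strain with four plasmids, each encoding a fluorescent protein and an amino-acid or uracil biosynthesis gene, seeds the community. Stochastic plasmid loss yields mixed prototroph and auxotroph subpopulations. Fixed cells were counted via automated confocal fluorescence imaging; DMSO-treated wells were the vehicle reference.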

system: Saccharomyces cerevisiae BY4741 SeMeCo community; experiment: imaged cell count per well (cells); higher = more cells; settings: 10 µM; 24 h; SM minimal medium
Procedure: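 Same SeMeCo high-content imaging drug screen: Selleck FDA-approved drugs at 10 µM, 24 h in SM medium, 384-well plates, 3 replicates.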

SMILES | imaged cell count per well
CC[C@H]1OC(=O)C[C@@H](O)[C@H](C)[C@@H](O[C@@H]2O[C@H](C)[C@@H](O)[C@H](N(C)C)[C@H]2O)[C@@H](CCN2C[C@H](C)C[C@H](C)C2)C[C@@H](C)C(=O)/C=C/C(C)=C/[C@@H]1CO[C@@H]1O[C@H](C)[C@@H](O)[C@@H](OC)[C@H]1OC [Tilmicosin] | 23500 ± 3500
CN(C)[C@@H]1C(O)=C(C(N)=O)C(=O)[C@@]2(O)C(O)=C3C(=O)c4c(O)cccc4[C@@](C)(O)[C@H]3C[C@@H]12 [Tetracycline HCl] | 27000 ± 3700
CNCC[C@@H](Oc1ccccc1C)c1ccccc1 [Atomoxetine HCl] | 22500 ± 6800
CCCCCCCCCC(=O)N[C@H]1[C@H](Oc2c3cc4cc2Oc2ccc(cc2Cl)[C@@H](O[C@@H]2O[C@H](CO)[C@@H](O)[C@H](O)[C@H]2NC(C)=O)[C@@H]2NC(=O)[C@H](NC(=O)[C@@H]4NC(=O)[C@H]4NC(=O)[C@@H](Cc5ccc(c(Cl)c5)O3)NC(=O)[C@H](N)c3ccc(O)c(c3)Oc3cc(O)cc4c3)c3ccc(O)c(c3)-c3c(OC4O[C@H](CO)[C@@H](O)[C@H](O)[C@@H]4O)cc(O)cc3[C@@H](C(=O)O)NC2=O)O[C@H](CO)[C@@H](O)[C@@H]1O (stereo partly drawn) [Teicoplanin] | 32600 ± 5200
Cc1c(OCC(F)(F)F)ccnc1C[S+]([O-])c1nc2ccccc2[nH]1 (stereo not drawn) [Lansoprazole] | 20600 ± 4200
C=CCN1CCCC1CNC(=O)c1cc2nn[nH]c2cc1OC (stereo not drawn) [Alizapride HCl] | 23700 ± 9000
CC[C@H](Nc1ncnc2[nH]cnc12)c1nc2cccc(F)c2c(=O)n1-c1ccccc1 [Idelalisib (CAL-101, GS-1101)] | 18600 ± 7700
CO/N=C(\C(=O)N[C@@H]1C(=O)N2C(C(=O)OCOC(=O)C(C)(C)C)=C(/C=C\c3scnc3C)CS[C@H]12)c1csc(N)n1 [Cefditoren Pivoxil] | 26800 ± 4500
OCc1ccc(Cl)cc1Cl [2,4-dichlorobenzyl alcohol] | 20800 ± 4600
NC[C@@H]1O[C@H](O[C@H]2[C@@H](O)[C@H](O[C@@H]3[C@@H](O)[C@H](N)C[C@H](N)[C@H]3O[C@H]3O[C@H](CO)[C@@H](O)[C@H](O)[C@H]3N)O[C@@H]2CO)[C@H](N)[C@@H](O)[C@@H]1O [Paromomycin Sulfate] | 19800 ± 4200
C[C@@H](O)[C@H]1C(=O)N2C(C(=O)O)=C(S[C@@H]3CN[C@H](C(=O)N(C)C)C3)[C@H](C)[C@H]12 [Meropenem Trihydrate] | 18300 ± 9000
CC(Cc1ccc(O)c(O)c1)C(C)Cc1ccc(O)c(O)c1 (stereo not drawn) [Nordihydroguaiaretic acid (NDGA)] | 23700 ± 3400
C[C@@H](O)[C@H]1C(=O)N2C(C(=O)O)=C(S[C@@H]3CN[C@H](CNS(N)(=O)=O)C3)[C@H](C)[C@H]12 [Doripenem Hydrate] | 26500 ± 1100
CCCCOc1ccc(CC(=O)NO)cc1 [Bufexamac] | 23100 ± 4000
Oc1cccc(O)c1 [Resorcinol] | 25800 ± 5200
CO[C@H]1C[C@@H]2CC[C@@H](C)[C@@](O)(O2)C(=O)C(=O)N2CCCC[C@H]2C(=O)O[C@H]([C@H](C)C[C@@H]2CC[C@@H](OC(=O)C(C)(CO)CO)[C@H](OC)C2)CC(=O)[C@H](C)/C=C(\C)[C@@H](O)[C@@H](OC)C(=O)[C@H](C)C[C@H](C)/C=C/C=C/C=C/1C | 7520 ± 1200
COc1cc(O)c(C(=O)Nc2nc(C(=O)NCCN(C(C)C)C(C)C)cs2)cc1OC [Acotiamide] | 28900 ± 3600
Cc1cc(O)c(C(=O)N[C@@H](C(=O)N[C@@H]2C(=O)N3C(C(=O)O)=C(CSc4nnnn4C)CS[C@H]23)c2ccc(O)cc2)cn1 [Cefpiramide sodium] | 28100 ± 6200
CCCc1nn(C)c2c(=O)[nH]c(-c3cc(S(=O)(=O)N4CCN(C)CC4)ccc3OCC)nc12 [Sildenafil Mesylate] | 27700 ± 7300

A few values from above.
For imaged cell count per well, OCc1ccc(Cl)cc1Cl [2,4-dichlorobenzyl alcohol] is entered as 20800 ± 4600
For imaged cell count per well, Oc1cccc(O)c1 [Resorcinol] is entered as 25800 ± 5200

(listing goes on)

SMILES | imaged cell count per well
CCCCc1oc2ccc(NS(C)(=O)=O)cc2c1C(=O)c1ccc(OCCCN(CCCC)CCCC)cc1 [Dronedarone HCl] | 19300 ± 8700
CCN1CCN(c2cc3c(cc2F)c(=O)c(C(=O)O)cn3C2CC2)CC1 [Enrofloxacin] | 27100 ± 2600
CONC(=O)Nc1ccc(-c2sc3c(c2CN(C)C)c(=O)n(-c2ccc(OC)nn2)c(=O)n3Cc2c(F)cccc2F)cc1 [Relugolix] | 26700 ± 2700
O=C(Nc1cc(Cl)cc(Cl)c1O)c1c(O)c(Cl)cc(Cl)c1Cl [Oxyclozanide] | 18400 ± 4800
Cc1nccn1CC1CCc2c(c3ccccc3n2C)C1=O (stereo not drawn) [Ondansetron Hydrochloride Dihydrate] | 27600 ± 8800
COc1ccc2c3c1O[C@H]1C[C@@H](O)C=C[C@@]31CCN(C)C2 [Galanthamine] | 21200 ± 1800
COc1ccc2c3c1O[C@H]1C[C@@H](O)C=C[C@@]31CCN(C)C2 [Galanthamine HBr] | 30600 ± 1600
CN1CCC(=C2c3ccccc3CCc3sccc32)CC1 [Pizotifen Malate] | 22000 ± 760
CCn1cc(C(=O)O)c(=O)c2cc(F)c(N3CCN(C)CC3)cc21 [Pefloxacin Mesylate] | 24100 ± 5600
CCOc1cc(N)c(Cl)cc1C(=O)NCC1CN(Cc2ccc(F)cc2)CCO1 (stereo not drawn) [Mosapride] | 21400 ± 4500
CN(C)[C@@H]1C(O)=C(C(N)=O)C(=O)[C@@]2(O)C(O)=C3C(=O)c4c(O)cccc4[C@@](C)(O)[C@H]3[C@H](O)[C@@H]12 [Oxytetracycline (Terramycin)] | 15000 ± 800
CNCC[C@H](Oc1cccc2ccccc12)c1cccs1 [Duloxetine HCl] | 21800 ± 7300
CC[C@H]1OC(=O)[C@H](C)[C@@H](O[C@H]2C[C@@](C)(OC)[C@@H](O)[C@H](C)O2)[C@H](C)[C@@H](O[C@@H]2O[C@H](C)C[C@H](N(C)C)[C@H]2O)[C@](C)(O)C[C@@H](C)C(=O)[C@H](C)[C@H]2OC(=O)O[C@@]21C [Erythromycin Cyclocarbonate] | 27200 ± 620
N=C(N)NC(=O)c1nc(Cl)c(N)nc1N [Amiloride HCl dihydrate] | 24100 ± 2800
CO/N=C(\C(=O)N[C@@H]1C(=O)N2C(C(=O)O)=CCS[C@H]12)c1csc(N)n1 [Ceftizoxime sodium] | 25300 ± 7200
O=C1[C@H]2CCCC[C@H]2C(=O)N1CCCCN1CCN(c2nsc3ccccc23)CC1 [Perospirone hydrochloride] | 24200 ± 6700
Cc1nc(C)c(Cl)c(O)c1Cl [Clopidol] | 25400 ± 5000
Cc1cc(NS(=O)(=O)c2ccc(N)cc2)no1 [Sulfamethoxazole sodium] | 25400 ± 10000
COC(=O)C1=C(C)NC(C)=C(C(=O)OC(C)C)C1c1cccc2nonc12 (stereo not drawn) [Isradipine] | 22300 ± 2200
